Laboratory results reported in paper PMC10092765.
No constants are given. Whether binding was seen depends on the method and setting. Binding seen in cells or lysates may run through a third protein. Some entries that bind do so weakly or less than the wild type.

Amino acid sequences for entries named in this document (tags omitted).
UniProt Q96EB6: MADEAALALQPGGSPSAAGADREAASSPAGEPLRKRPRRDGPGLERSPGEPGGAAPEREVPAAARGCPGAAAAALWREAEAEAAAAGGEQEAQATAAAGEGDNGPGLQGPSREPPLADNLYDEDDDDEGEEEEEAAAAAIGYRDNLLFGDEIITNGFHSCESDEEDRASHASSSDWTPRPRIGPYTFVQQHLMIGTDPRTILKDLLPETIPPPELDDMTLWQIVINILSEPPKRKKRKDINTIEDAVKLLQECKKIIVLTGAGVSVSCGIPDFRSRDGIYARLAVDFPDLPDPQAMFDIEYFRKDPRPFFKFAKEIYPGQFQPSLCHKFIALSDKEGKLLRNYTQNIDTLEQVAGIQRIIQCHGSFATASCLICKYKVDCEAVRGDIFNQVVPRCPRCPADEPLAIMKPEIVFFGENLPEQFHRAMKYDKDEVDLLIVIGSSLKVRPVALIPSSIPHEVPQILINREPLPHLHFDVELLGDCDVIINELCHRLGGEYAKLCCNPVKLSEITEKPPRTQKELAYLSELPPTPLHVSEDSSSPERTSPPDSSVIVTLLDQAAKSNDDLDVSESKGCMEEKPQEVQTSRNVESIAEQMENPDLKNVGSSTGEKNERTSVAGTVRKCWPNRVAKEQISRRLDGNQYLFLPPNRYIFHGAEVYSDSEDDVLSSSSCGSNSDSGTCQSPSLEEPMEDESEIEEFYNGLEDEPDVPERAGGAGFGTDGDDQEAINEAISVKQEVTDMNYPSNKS
UniProt P35222: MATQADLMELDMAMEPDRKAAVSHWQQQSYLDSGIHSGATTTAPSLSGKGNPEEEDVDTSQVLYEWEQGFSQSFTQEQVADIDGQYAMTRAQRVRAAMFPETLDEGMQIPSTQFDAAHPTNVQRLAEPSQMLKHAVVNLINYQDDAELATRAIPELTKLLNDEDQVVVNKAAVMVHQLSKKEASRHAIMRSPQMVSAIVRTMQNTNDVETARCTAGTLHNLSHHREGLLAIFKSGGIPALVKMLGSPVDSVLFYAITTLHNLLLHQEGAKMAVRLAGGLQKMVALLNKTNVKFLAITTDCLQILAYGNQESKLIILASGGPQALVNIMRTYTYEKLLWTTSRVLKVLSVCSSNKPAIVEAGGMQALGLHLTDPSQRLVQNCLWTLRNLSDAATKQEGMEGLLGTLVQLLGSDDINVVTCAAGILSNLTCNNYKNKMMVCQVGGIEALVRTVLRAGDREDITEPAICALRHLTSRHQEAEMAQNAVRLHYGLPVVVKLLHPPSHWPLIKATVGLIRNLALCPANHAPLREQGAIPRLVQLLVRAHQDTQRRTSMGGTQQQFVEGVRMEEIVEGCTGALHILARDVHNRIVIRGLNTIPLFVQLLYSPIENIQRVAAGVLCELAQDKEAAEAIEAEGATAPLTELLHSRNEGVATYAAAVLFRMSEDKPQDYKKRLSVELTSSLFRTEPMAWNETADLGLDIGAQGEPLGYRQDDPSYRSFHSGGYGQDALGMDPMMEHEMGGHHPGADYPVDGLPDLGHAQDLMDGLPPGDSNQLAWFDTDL

Target: sirtuin-1 (SIRT1) (human (endogenous in HCT116 and DLD1)) (UniProt Q96EB6)
Test: co-IP; endogenous proteins; HCT116 and DLD1 cell lysates immunoprecipitated with anti-SIRT1 or IgG control (100 µL lysate, 2 µL primary antibody, 4 ℃ 3 h; Protein A/G Magnetic Beads 4 ℃ overnight; washed thrice with lysis buffer), immunoblotted with anti-SIRT1 or anti-β-catenin

- binding: binds
Substance: β-catenin (from UniProt P35222 1-781)
